# Measured values from patent publication US20050196806A1 (The Government of the USA, as represented by the Secretary, …, priority 1996, published 2005).
# Experiment: general procedure: Fmoc solid-phase peptide synthesis
# Details: whole synthesis, scale 25 μmole
sequence,measurement,value
FLTPKKLQCVDLHVISNDVCAQVHPQKVTK (cysteines drawn unpaired),crude mass,approximately 64 mg

# No end group written: not given here.
